This is one part of the list. The main result of the screen is listed elsewhere. These columns were measured beside it and carry no call. Compounds called inactive in the main read-out are mostly missing here. Potencies come from curve fits of mixed quality, noted in brackets.
Assay: qHTS Assay to Find Inhibitors of Chronic Active B-Cell Receptor Signaling
Conditions: ABC-DLBCL IkBa-CBG/CBR reporter, luminescence ratio (green luciferase fused to IkBa over red control in TMD8 lymphoma cells), 4 h; measured here: CBR red luminescence, cell number
How it was run: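 Cell line TMD8 (human ABC DLBCL), stably expressing tet-inducible CBG68-IkBa fusion and CBR; IMDM/0.5% FBS; cpd up to 46 uM; dox induction, 4 h, 37C/5% CO2; dual luminescence; green/red ratio; MG132 control.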
In the case of `CCCCNS(=O)(=O)CCNCc1ccccc1OC`, the AC50 is reported as 10.3 µM [rising, partial curve, poor fit].

From PubChem BioAssay AID493014 (National Center for Advancing Translational Sciences (NCATS), 2011)
